The other results are listed elsewhere or left out. Single values are uncertain, as repeats are few or missing.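 Cells were imaged in 1,536-well plates, and nuclei stained with an antibody against cleaved PARP were counted against all DNA-stained nuclei to give the apoptosis fraction. Screening doses were chosen to leave most cells alive, and resting and induced cleaved-PARP levels differ strongly between cell lines.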

In this assay the test system is SkMel28. The experiment in a line: cleaved PARP positive nuclei fraction relative to DMSO control; melanoma cells; higher = more apoptosis. The settings on record: library dose: low library concentration; 72 h.
In the case of `NC1(c2ccc(-c3nc4ccn5c(=O)[nH]nc5c4cc3-c3ccccc3)cc2)CCC1` + Cc1nc(Nc2ncc(C(=O)Nc3c(C)cccc3Cl)s2)cc(N2CCN(CCO)CC2)n1 [dasatanib] (first compound 0.4 µM, partner dose 0.004 µM), the “cleaved PARP positive nuclei fraction” value turned out to be 114%.

On to `C[C@@H](N)c1ccc(C(=O)Nc2ccnc3[nH]ccc23)cc1` + CC(C)(C)c1cnc(CSc2cnc(NC(=O)C3CCNCC3)s2)o1 [SNS-032] (first compound 0.4 µM, partner dose 0.01 µM), for which the “cleaved PARP positive nuclei fraction” value was found to be 220%.

Regarding `NC(=O)c1ccc(N(C(N)=O)c2c(F)cccc2F)nc1-c1ccc(F)cc1F` + CN1CCN(c2ccc3nc(-c4c(N)c5c(F)cccc5[nH]c4=O)[nH]c3c2)CC1 [Dovitinib] (first compound 0.4 µM, partner dose 0.1 µM), the “cleaved PARP positive nuclei fraction” value worked out at 46.8%.

Take `NC(=O)c1ccc(N(C(N)=O)c2c(F)cccc2F)nc1-c1ccc(F)cc1F` + C[C@]1(O)C[C@@H](c2nc(-c3ccc4ccc(-c5ccccc5)nc4c3)c3c(N)nccn32)C1 [OSI906] (first compound 0.4 µM, partner dose 0.4 µM): the “cleaved PARP positive nuclei fraction” value was 103%.

With `Cn1cnc2c(F)c(Nc3ccc(Br)cc3Cl)c(C(=O)NOCCO)cc21` [selumetinib] + Cn1nnc2c(C(N)=O)ncn2c1=O [temozolomide] (first compound 0.015 µM, partner dose 2 µM), the “cleaved PARP positive nuclei fraction” value worked out at 122%.

For `C[C@]1(O)C[C@@H](c2nc(-c3ccc4ccc(-c5ccccc5)nc4c3)c3c(N)nccn32)C1` + Clc1ccc(Nc2nnc(Cc3ccncc3)c3ccccc23)cc1 [vatalanib] (first compound 0.4 µM, partner dose 2 µM), the “cleaved PARP positive nuclei fraction” value came to 80.7%.

For `CC1(C)CCC(c2ccc(Cl)cc2)=C(CN2CCN(c3ccc(C(=O)NS(=O)(=O)c4ccc(N[C@H](CCN5CCOCC5)CSc5ccccc5)c(S(=O)(=O)C(F)(F)F)c4)cc3)CC2)C1` + Cc1cc(N2CCOCC2)cc2[nH]c(-c3c(NC[C@@H](O)c4cccc(Cl)c4)cc[nH]c3=O)nc12 [BMS536924] (first compound 0.4 µM, partner dose 0.2 µM), the “cleaved PARP positive nuclei fraction” value is 84.3%.

With `CC(=O)O[C@@]12CO[C@@H]1C[C@H](O)[C@@]1(C)C(=O)[C@H](O)C3=C(C)[C@@H](OC(=O)[C@H](O)[C@@H](NC(=O)OC(C)(C)C)c4ccccc4)C[C@@](O)([C@@H](OC(=O)c4ccccc4)[C@H]21)C3(C)C` [Docetaxel] + COCC[n+]1c2c(n(Cc3cnccn3)c1C)C(=O)c1ccccc1C2=O [YM155] (first compound 0.0001 µM, partner dose 0.0004 µM), the “cleaved PARP positive nuclei fraction” value was 239%.

For `NC1(c2ccc(-c3nc4ccn5c(=O)[nH]nc5c4cc3-c3ccccc3)cc2)CCC1` + CC(=O)c1c(C)c2cnc(Nc3ccc(N4CCNCC4)cn3)nc2n(C2CCCC2)c1=O [palbociclib] (first compound 0.4 µM, partner dose 0.04 µM), the “cleaved PARP positive nuclei fraction” value came out at 129%.

Turning to `Cn1sc(=O)n(Cc2ccccc2)c1=O` + Cc1cc([N+](=O)[O-])ccc1NS(=O)(=O)c1cc(Cl)ccc1Cl [FH535] (first compound 0.4 µM, partner dose 1 µM), the “cleaved PARP positive nuclei fraction” value was 75.4%.

Turning to `CN(c1ncccc1CNc1nc(Nc2ccc3c(c2)CC(=O)N3)ncc1C(F)(F)F)S(C)(=O)=O` + Nc1cccc2c1CN(C1CCC(=O)NC1=O)C2=O [lenalidomide] (first compound 0.08 µM, partner dose 1 µM), the “cleaved PARP positive nuclei fraction” value is 77.8%.

With `NC(=O)c1ccc(N(C(N)=O)c2c(F)cccc2F)nc1-c1ccc(F)cc1F` + C[C@]1(c2nc3c(C(N)=O)cccc3[nH]2)CCCN1 [Veliparib] (first compound 0.4 µM, partner dose 1.4 µM), the “cleaved PARP positive nuclei fraction” value is 53.2%.

Consider `CCCCCCCCc1ccc(CCC(N)(CO)CO)cc1` [fingolimod] + O=C(O)c1ccc2c(c1)nc(Nc1cccc(Cl)c1)c1ccncc12 [CX4945] (first compound 2 µM, partner dose 0.4 µM), for which the “cleaved PARP positive nuclei fraction” value came to 64.7%.

With `C[C@@H](N)c1ccc(C(=O)Nc2ccnc3[nH]ccc23)cc1` + Cc1cc(N2CCOCC2)cc2[nH]c(-c3c(NC[C@@H](O)c4cccc(Cl)c4)cc[nH]c3=O)nc12 [BMS536924] (first compound 0.4 µM, partner dose 0.2 µM), the “cleaved PARP positive nuclei fraction” value turned out to be 74.4%.

The values are drawn from the supplement of paper PMC4604168 (melanoma cell lines).
